Values from PubChem BioAssay AID1224830 (NIAID, 2016).
The deposit covers about 18,000 reagents; this is a part drawn at random. Of all reagents, about 2,900 (16%) got an active call. 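Calls are made per well; low scores hint the gene aids the LPS response, high scores that it dampens it.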 A number with no mark means an inactive call. Repeated entries: four replicate wells of each siRNA pool.

- Test: 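Regulators of TLR4 signalling towards TNF-alpha in macrophage-like cells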 (primary screen)
- Cells: human THP-1 monocytic leukaemia cells, TNF dual-luciferase reporter clone, PMA-differentiated to macrophage-like cells
- Reagents: siRNA pool against human genes, 50 nM
- Duration: LPS for 4 h, given about 3 days after siRNA transfection
- Treatment: bacterial LPS (TLR4 ligand), 10 ng/ml
- Detection: 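TNF firefly reporter luminescence divided by renilla, normalised to the plate median, then turned into a robust z-score for each replicate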
- Scale: TNF reporter robust z-score: higher = stronger TNF reporter response to LPS
- Active means: 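a well is active when its z-score exceeds 2.8 or falls below -1.5; control wells carry no call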

Depletion of PROS1 came out at: TNF reporter robust z-score -0.46.
After knock-down of PROS1, the record shows TNF reporter robust z-score 0.1.
After knock-down of PROS1, the screen gave TNF reporter robust z-score -0.26.
After knock-down of PROS1, the record shows TNF reporter robust z-score 1.06.
Silencing of HDDC3 resulted in: TNF reporter robust z-score -0.31.
HDDC3 gave TNF reporter robust z-score 0.16.
Depletion of HDDC3 gave: TNF reporter robust z-score -0.4.
Against HDDC3 the deposit lists TNF reporter robust z-score 0.7.
With knock-down of SGTB, the record shows TNF reporter robust z-score 0.06.
For SGTB, the entry reads TNF reporter robust z-score -0.27.
Silencing of SGTB resulted in: TNF reporter robust z-score 0.18.
For SGTB, the entry reads TNF reporter robust z-score 0.07.
Against AOC1 the deposit lists TNF reporter robust z-score -0.77.
AOC1 scored TNF reporter robust z-score -0.73.
After knock-down of AOC1 the results were TNF reporter robust z-score -0.86.
AOC1 gave TNF reporter robust z-score -0.09.
With knock-down of NOD2, the screen gave TNF reporter robust z-score 0.84.
NOD2 scored TNF reporter robust z-score 1.18.
NOD2 scored TNF reporter robust z-score 0.58.
Depletion of NOD2 resulted in: TNF reporter robust z-score 0.64.
With knock-down of CLK3, the screen gave TNF reporter robust z-score 0.3.
CLK3 scored TNF reporter robust z-score 0.42.
After knock-down of CLK3, the record shows TNF reporter robust z-score -0.83.
For CLK3 the deposit lists TNF reporter robust z-score 1.82.
Against PAH, the entry reads TNF reporter robust z-score -0.1.
After knock-down of PAH the results were TNF reporter robust z-score -0.47.
For PAH, the values are TNF reporter robust z-score -0.46.
After knock-down of PAH, the screen gave TNF reporter robust z-score 0.19.
C1orf52 showed TNF reporter robust z-score -1.42.
For C1orf52, the values are TNF reporter robust z-score -0.48.
For C1orf52, the values are TNF reporter robust z-score 0.32.
C1orf52 gave TNF reporter robust z-score 0.38.
